{"source": "PubChem BioAssay AID686937 – Drosophila RNAi Screening Center, 2013", "test": "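Genes whose loss weakens secretory pathway function in fly cells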 (primary screen)", "cells": "Drosophila S2 cells expressing secreted horseradish peroxidase", "reagent": "long dsRNA against Drosophila genes", "time to read-out": "about 5.5 days (5 days dsRNA, then 12 h reporter induction)", "conditions": "reporter expression induced after 5 days of dsRNA, read 12 h later; inducer not stated", "read-out": "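After 5 days of dsRNA and 12 h of reporter induction, medium peroxidase read by chemiluminescence and scored as per-plate z-score; higher values mean more reporter released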", "reading the numbers": "z-score: higher = more reporter secreted into medium", "note": "The deposit covers about 23,000 reagents; below is an unselected part of those with a known target gene and a result. 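Reduced-secretion tags in replicate 1 do not always agree with the z-scores; no criterion for assigning the tags was given.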 Reagents against one gene are numbered here. Not stated in the record: the amount of reagent."}
{"predicted target":"mira","reagent":1,"z-score, replicate 1":-0.13,"z-score, replicate 2":0.14}
{"predicted target":"CG1607","reagent":1,"z-score, replicate 1":0.29,"z-score, replicate 2":-0.13}
{"predicted target":"Obp19a","reagent":1,"z-score, replicate 1":0.39,"z-score, replicate 2":0.46}
{"predicted target":"Naa20A","reagent":1,"z-score, replicate 1":0.22,"z-score, replicate 2":0.5}
{"predicted target":"CG3526","reagent":1,"z-score, replicate 1":0.36,"z-score, replicate 2":0.53}
{"predicted target":"CG3526","reagent":2,"z-score, replicate 1":0.38,"z-score, replicate 2":0.27}

Part of the list above, set out differently.
| predicted target | reagent | z-score, replicate 1 | z-score, replicate 2 |
| --- | --- | --- | --- |
| CG3526 | 1 | 0.36 | 0.53 |
| CG3526 | 2 | 0.38 | 0.27 |

Additional entries follow:
{"predicted target":"Polr1B","reagent":1,"z-score, replicate 1":-0.02,"z-score, replicate 2":0.04}
{"predicted target":"Him","reagent":1,"z-score, replicate 1":-0.08,"z-score, replicate 2":-0.05}
{"predicted target":"DMAP1","reagent":1,"z-score, replicate 1":0.37,"z-score, replicate 2":0.34}
{"predicted target":"CG9663","reagent":1,"z-score, replicate 1":0.15,"z-score, replicate 2":0.41}
{"predicted target":"ProtA","reagent":1,"z-score, replicate 1":0.11,"z-score, replicate 2":0.31}
{"predicted target":"CG14540","reagent":1,"z-score, replicate 1":0.02,"z-score, replicate 2":-0.12}
{"predicted target":"CG7275","reagent":1,"z-score, replicate 1":0.2,"z-score, replicate 2":0.09}
{"predicted target":"CG32214","reagent":1,"z-score, replicate 1":-0.45,"z-score, replicate 2":0.47}
{"predicted target":"Syp","reagent":1,"z-score, replicate 1":-0.29,"z-score, replicate 2":0.61}
{"predicted target":"Syp","reagent":2,"z-score, replicate 1":0.28,"z-score, replicate 2":0.21}
